Results from patent US20250051464A1.
No constants are given. Whether binding was seen depends on the method and setting. Some entries that bind do so weakly or less than the wild type.

Protein sequences, listed by entry. Tags and fused reporters are not part of them. Lines headed by an entry give the natural chain unless they say otherwise; changes in a name come on top. Residues count along the entry.
UniProt P29317: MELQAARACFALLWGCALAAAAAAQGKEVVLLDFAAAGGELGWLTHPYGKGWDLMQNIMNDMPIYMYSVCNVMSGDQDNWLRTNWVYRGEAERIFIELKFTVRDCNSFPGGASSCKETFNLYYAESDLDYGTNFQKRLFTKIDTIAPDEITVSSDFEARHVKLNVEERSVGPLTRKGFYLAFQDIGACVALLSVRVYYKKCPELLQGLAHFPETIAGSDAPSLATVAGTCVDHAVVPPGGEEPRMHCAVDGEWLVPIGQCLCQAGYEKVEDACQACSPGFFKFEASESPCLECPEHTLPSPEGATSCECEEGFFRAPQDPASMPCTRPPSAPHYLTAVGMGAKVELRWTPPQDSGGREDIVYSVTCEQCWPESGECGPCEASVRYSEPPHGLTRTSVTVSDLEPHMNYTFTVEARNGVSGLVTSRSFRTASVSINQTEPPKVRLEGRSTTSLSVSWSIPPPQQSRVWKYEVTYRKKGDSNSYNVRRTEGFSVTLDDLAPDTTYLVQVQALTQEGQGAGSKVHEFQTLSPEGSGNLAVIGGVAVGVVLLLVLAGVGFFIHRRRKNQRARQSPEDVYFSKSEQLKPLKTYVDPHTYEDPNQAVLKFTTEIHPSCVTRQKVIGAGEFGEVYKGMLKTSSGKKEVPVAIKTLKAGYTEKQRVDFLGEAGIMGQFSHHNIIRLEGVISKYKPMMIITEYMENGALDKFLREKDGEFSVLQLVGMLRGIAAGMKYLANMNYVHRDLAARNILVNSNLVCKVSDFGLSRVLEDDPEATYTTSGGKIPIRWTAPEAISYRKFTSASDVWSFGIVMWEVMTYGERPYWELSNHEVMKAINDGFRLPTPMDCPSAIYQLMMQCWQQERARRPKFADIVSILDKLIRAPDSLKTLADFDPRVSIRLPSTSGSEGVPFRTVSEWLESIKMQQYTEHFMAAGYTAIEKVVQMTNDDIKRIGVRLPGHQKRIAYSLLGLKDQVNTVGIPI
UniProt P20827, residues 19-182: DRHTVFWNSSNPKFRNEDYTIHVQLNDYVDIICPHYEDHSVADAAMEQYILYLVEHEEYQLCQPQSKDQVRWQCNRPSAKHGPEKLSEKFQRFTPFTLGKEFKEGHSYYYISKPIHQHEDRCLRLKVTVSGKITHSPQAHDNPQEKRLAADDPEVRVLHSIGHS

Experiments:
[1] = biological target: extracellular domain of human EphA2 (25-534) with a C-terminal HIS tag (R&D Systems, 3035-A2) (human) (UniProt P29317); experiment: BLI in-tandem binning matrix on EphA2 ECD-His, competitor AB-010018
[2] = biological target: extracellular domain of human EphA2 (25-534) with a C-terminal HIS tag (R&D Systems, 3035-A2) (human) (UniProt P29317); experiment: BLI in-tandem binning matrix on EphA2 ECD-His, competitor AB-008873

binding [1]: binds | binding [2]: binds
Substance: EphrinA1 fused to Fc (Acro, EF1-H5251) (from UniProt P20827 19-182) (Fc fusion)
